PubChem BioAssay AID743121 | NCATS | 2013
The whole screen tested about 26,000 reagents; this is an unselected part. 167 of them (0.63%) were called active. 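Calls are per gene from RSA p-values that are not deposited; an individual active-marked siRNA can sensitise only weakly.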 A number with no mark means an inactive call. Reagents against one gene are numbered here. Further read-outs or replicates are left out here. Reagent sequences are not shown.

Screen: 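Knock-downs that sensitise breast cancer cells to camptothecin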 (primary screen)
System: MDA-MB-231 cells, a human breast cancer line
Reagent: single siRNA against human genes, 20 nM siRNA (0.8 pmol per well)
Time to read-out: 120 h (drug added 48 h after transfection, read 72 h later)
Challenge: camptothecin 20 nM (about EC30) for 72 h; vehicle 0.1% DMSO in parallel plates
Detection: 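CellTiter-Glo ATP signal, scaled to control siRNA as percent viability; sensitisation given as log2 of untreated divided by camptothecin-treated viability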
Direction: log2 vehicle/camptothecin viability: higher = stronger sensitisation to camptothecin; viability with camptothecin: higher = more viable cells
Call rule: 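Each gene scored by redundant siRNA activity (RSA) over its individual siRNA ratios; a gene is called active at p < 0.001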

For LONRF1 (GeneID 91694) #1 the deposit lists log2 vehicle/camptothecin viability 0.144; viability with camptothecin (% of control) = 87.9. Depletion of LONRF1 (GeneID 91694) #2 resulted in: log2 vehicle/camptothecin viability 0.0738; viability with camptothecin (% of control) = 66.1. Depletion of LONRF1 (GeneID 91694) #3 resulted in: log2 vehicle/camptothecin viability 0.535; viability with camptothecin (% of control) = 49.8. After knock-down of LONRF1 (GeneID 91694) #4, the record shows log2 vehicle/camptothecin viability -0.0233; viability with camptothecin (% of control) = 80.9. For CFLAR (GeneID 8837) #1, the values are log2 vehicle/camptothecin viability 0.113; viability with camptothecin (% of control) = 68.4. For CFLAR (GeneID 8837) #2, the entry reads log2 vehicle/camptothecin viability -0.707; viability with camptothecin (% of control) = 18.9.

Silencing of ANO9 (GeneID 338440) #1 resulted in: log2 vehicle/camptothecin viability 2.35; viability with camptothecin (% of control) = 2.39. Depletion of ANO9 (GeneID 338440) #2 came out at: log2 vehicle/camptothecin viability -0.58; viability with camptothecin (% of control) = 81.9. With knock-down of ANO9 (GeneID 338440) #3 the results were log2 vehicle/camptothecin viability -0.453; viability with camptothecin (% of control) = 72.1. Knock-down of ANO9 (GeneID 338440) #4 gave: log2 vehicle/camptothecin viability 0.0106; viability with camptothecin (% of control) = 84. For GFRA2 (GeneID 2675) #1, the values are log2 vehicle/camptothecin viability -0.0546; viability with camptothecin (% of control) = 83.9. Depletion of GFRA2 (GeneID 2675) #2 gave: log2 vehicle/camptothecin viability -0.104; viability with camptothecin (% of control) = 70.8.

Depletion of GFRA2 (GeneID 2675) #3 gave: log2 vehicle/camptothecin viability -0.288; viability with camptothecin (% of control) = 92.3. GFRA2 (GeneID 2675) #4 gave log2 vehicle/camptothecin viability -0.098; viability with camptothecin (% of control) = 85.9. Against MYORG (GeneID 57462) #1, the entry reads log2 vehicle/camptothecin viability 0.023; viability with camptothecin (% of control) = 81.4. MYORG (GeneID 57462) #2 gave log2 vehicle/camptothecin viability -0.0128; viability with camptothecin (% of control) = 29.3. Against MYORG (GeneID 57462) #3, the entry reads log2 vehicle/camptothecin viability 0.471; viability with camptothecin (% of control) = 25.9. For MYORG (GeneID 57462) #4, the values are log2 vehicle/camptothecin viability -0.0977; viability with camptothecin (% of control) = 80.

With knock-down of PPOX (GeneID 5498) #1, the record shows log2 vehicle/camptothecin viability -0.372; viability with camptothecin (% of control) = 77. Silencing of PPOX (GeneID 5498) #2 came out at: log2 vehicle/camptothecin viability 0.127; viability with camptothecin (% of control) = 39.5. After knock-down of PPOX (GeneID 5498) #3 the results were log2 vehicle/camptothecin viability -0.285; viability with camptothecin (% of control) = 21.8. Against PPOX (GeneID 5498) #4, the entry reads log2 vehicle/camptothecin viability -0.472; viability with camptothecin (% of control) = 79.

In a second layout: 6 of the entries above.
target gene | reagent no. | log2 vehicle/camptothecin viability | viability with camptothecin (% of control)
CFLAR (GeneID 8837) | 2 | -0.707 | 18.9
ANO9 (GeneID 338440) | 1 | 2.35 | 2.39
ANO9 (GeneID 338440) | 2 | -0.58 | 81.9
ANO9 (GeneID 338440) | 3 | -0.453 | 72.1
ANO9 (GeneID 338440) | 4 | 0.0106 | 84
GFRA2 (GeneID 2675) | 1 | -0.0546 | 83.9

Additional entries follow.
For STK35 (GeneID 140901) #1 the deposit lists log2 vehicle/camptothecin viability -0.57; viability with camptothecin (% of control) = 79. With knock-down of STK35 (GeneID 140901) #2, the record shows log2 vehicle/camptothecin viability -0.199; viability with camptothecin (% of control) = 28.4. Knock-down of STK35 (GeneID 140901) #3 came out at: log2 vehicle/camptothecin viability 0.038; viability with camptothecin (% of control) = 58.1. Depletion of STK35 (GeneID 140901) #4 gave: log2 vehicle/camptothecin viability -0.11; viability with camptothecin (% of control) = 89.6. SERPINC1 (GeneID 462) #1 gave log2 vehicle/camptothecin viability -0.21; viability with camptothecin (% of control) = 61.2. Silencing of SERPINC1 (GeneID 462) #2 gave: log2 vehicle/camptothecin viability -0.399; viability with camptothecin (% of control) = 75.6.

Depletion of SERPINC1 (GeneID 462) #3 gave: log2 vehicle/camptothecin viability -0.102; viability with camptothecin (% of control) = 93.7. With knock-down of ITGA3 (GeneID 3675) #1, the screen gave log2 vehicle/camptothecin viability -0.0508; viability with camptothecin (% of control) = 68.9. After knock-down of ITGA3 (GeneID 3675) #2 the results were log2 vehicle/camptothecin viability 0.291; viability with camptothecin (% of control) = 65.4. Against ITGA3 (GeneID 3675) #3 the deposit lists log2 vehicle/camptothecin viability -0.381; viability with camptothecin (% of control) = 60.9. Knock-down of ITGA3 (GeneID 3675) #4 gave: log2 vehicle/camptothecin viability -0.00986; viability with camptothecin (% of control) = 55.5. HNF1A (GeneID 6927) #1 showed log2 vehicle/camptothecin viability -0.399; viability with camptothecin (% of control) = 90.1.

After knock-down of HNF1A (GeneID 6927) #2, the screen gave log2 vehicle/camptothecin viability 0.0455; viability with camptothecin (% of control) = 59.6. For HNF1A (GeneID 6927) #3, the entry reads log2 vehicle/camptothecin viability -0.493; viability with camptothecin (% of control) = 100. After knock-down of HNF1A (GeneID 6927) #4 the results were log2 vehicle/camptothecin viability -0.178; viability with camptothecin (% of control) = 112.
